According to the supplement of paper PMC7858590:
Values joined by “and” are separate entries in the source; they are usually repeats but may differ in a detail not shown here. Equal entries are not always repeated. ± gives the standard deviation of the averaged measurements. In all, about 3,800 compounds were measured (“cell shape (eccentricity) Z-score vs DMSO control”: median about 1.1, lowest 2% from about -4.7 on). The list shows a part of the results.

system: human monocyte-derived macrophages (M0); assay: cell shape (eccentricity) Z-score vs DMSO control; higher = more elongated, M2-like morphology; conditions: 20 µM; 24 h; macrophage state: M0 (M-CSF)

Compound | cell shape (Z-score)
Nc1ccc(-c2cccc3c(=O)cc(N4CCOCC4)oc23)cc1 | 3.82
CCOC(=O)[C@H](CCc1ccccc1)N[C@@H](C)C(=O)N1CCC[C@H]1C(=O)O | 2.92
OC[C@H]1O[C@@H](Oc2ccc3c(c2)OC[C@H]2c4cc5c(cc4O[C@@H]32)OCO5)[C@H](O)[C@@H](O)[C@@H]1O | -0.0364
CC(=O)OCC(=O)[C@H]1CCC2C3CC=C4C[C@@H](O)CC[C@]4(C)C3CC[C@@]21C (stereo not given in full) | 3.17
CC(=O)Nc1nnc(S(N)(=O)=O)s1 | 1.42
N=C(N)N/N=C\c1c(Cl)cccc1Cl | 1.01
C[C@]12CCC(=O)C=C1CC[C@@H]1[C@@H]2[C@@H](O)C[C@@]2(C)[C@H]1CC[C@]2(O)C(=O)CO | -2.61
O=C(CCCN1CCC(O)(c2ccc(Br)cc2)CC1)c1ccc(F)cc1 | 0.74
COc1cccc2c1C(=O)c1c(O)c3c(c(O)c1C2=O)C[C@@](O)(C(C)=O)C[C@@H]3OC1CC(N)C(O)C(C)O1 (stereo not given in full) | 3.34
CNC(=O)c1ccccc1Sc1ccc2c(/C=C/c3ccccn3)n[nH]c2c1 | 6.16 and 7.54
N#CC(OC1OC(COC2OCC(OC(=O)/C=C/c3ccc(OC4OC(CO)C(O)C(O)C4O)cc3)C(O)C2O)C(O)C(O)C1O)c1ccccc1 (stereo not given) | -1.18
OC(c1cc(C(F)(F)F)nc2c(C(F)(F)F)cccc12)C1CCCCN1 (stereo not given) | -2.36 ± 0.21
C[C@H](C[C@@H](O)[C@](C)(O)[C@H]1CC[C@@]2(O)C3=CC(=O)[C@@H]4C[C@@H](O)[C@@H](O)C[C@]4(C)C3CC[C@]12C)C(C)(C)O (stereo not given in full) | 1.42
CCC(Cc1c(I)cc(I)c(N)c1I)C(=O)O (stereo not given) | -0.923
CC/C=C/c1ccc(C)cc1/C=C/CCCC(=O)O | 0.172
CCCCCCCCc1ccc(CCC(N)(CO)CO)cc1 | -5.98 ± 2.9
C/C=C1/[C@H](O[C@@H]2O[C@H](CO)[C@@H](O)[C@H](O)[C@H]2O)OC=C(C(=O)OC)[C@H]1CC(=O)OCC(C)[C@@H]1C[C@H]2OC(=O)C3=CO[C@@H](O[C@@H]4O[C@H](CO)[C@@H](O)[C@H](O)[C@H]4O)/C(=C/C)[C@@H]3CC(=O)OC[C@@H]1[C@H]2C (stereo not given in full) | -0.239 ± 0.36
CC1(C)CC[C@]2(C(=O)O[C@@H]3O[C@H](CO)[C@@H](O)[C@H](O)[C@H]3O)CC[C@]3(C)C(=CCC4[C@@]5(C)C[C@@H](O)[C@H](O)[C@@](C)(CO)C5[C@H](O)C[C@]43C)C2C1 (stereo not given in full) | 4.82 ± 3.7
CN1CC[C@@H](c2c(O)cc(O)c3c(=O)cc(-c4ccccc4Cl)oc23)[C@H](O)C1 | 4.23
O=C(Nc1ccccc1)c1cc([N+](=O)[O-])ccc1Cl | -1.03
CC(=O)[C@H]1CCC2C3CC=C4C[C@@H](O)CC[C@]4(C)C3CC[C@@]21C (stereo not given in full) | 2.02
C=C(CO)C1Cc2cc(C(C)=O)ccc2O1 (stereo not given) | 2.37
COC(=O)c1c(-c2cc(OC)c(OC)c(OC)c2)c2ccnc(OCc3ncccn3)c2c(=O)n1Cc1ccnc(C)c1 | 2.89

Compound | cell shape (Z-score)
CC(C)n1cnc2c(NCc3ccccc3)nc(NCCCO)nc21 | 2.35
Oc1ccc(-c2c(-c3ccccc3)nn3c(C(F)(F)F)cc(C(F)(F)F)nc23)cc1 | 1.56
CC(C)c1cc(C(=O)N2Cc3ccc(CN4CCN(C)CC4)cc3C2)c(O)cc1O | -2.27
COc1ccc(C2CC(=O)c3c(O)cc(O)cc3O2)cc1O (stereo not given) | 0.875
CCC(C)C(OC1OC(C)C(O)C(O)C1O)C(C)C(=O)C(C)/C=C(\C)CC(C)C(O)C(C)C(=O)O (stereo not given) | -1.69
O=c1oc2cc(O)ccc2s1 | 1.14
Cc1occc(=O)c1CC=O | 1.61
O=c1[nH]c(=O)n([C@H]2CC(O)[C@@H](CO)O2)cc1C(F)(F)F (stereo not given in full) | 0.902
COC1CC(OC2C(C)OC(OC3C(C)OC(OC4C(C)OCC(OC5C(O)C(O[C@H]6CC[C@@]7(C)C(=CC[C@]8(O)C7CC(OC(=O)c7ccccc7)[C@@]7(C)[C@]8(O)CC[C@@]7(O)C(C)=O)C6)OC(CO)C5OC5OC(CO)C(O)C(O)C5O)C4OC)CC3OC)CC2OC)OC(C)C1O (stereo not given in full) | -3.39
CNCCC(Oc1ccccc1OC)c1ccccc1 (stereo not given) | 1.09
O=C(Nc1ccc(OC(F)(F)F)cc1)c1sccc1NCc1ccnc2ccccc12 | 5.49
O=C(O)Cc1nn(Cc2ccc(Br)cc2F)c(=O)c2ccccc12 | -4.79
CC1CNCCN1S(=O)(=O)c1cccc2cnccc12 (stereo not given) | 10.8
CC1CC(=O)C2=C(O1)OC1(C)CCC3(O)C(C)(C)C=CC(=O)C3(C)C1C2 (stereo not given) | 0.402
COc1cnc(NS(=O)(=O)c2ccc(N)cc2)nc1 | 0.136
COc1c2c(cc3oc(CO[C@@H]4O[C@H](CO)[C@@H](O)[C@H](O)[C@H]4O)cc(=O)c13)OC(C(C)(C)O)C2 (stereo not given in full) | 2.25
O=C(C[C@H]1CC[C@@H](NC(=O)c2ccc(F)cc2)[C@H](CO)O1)NCc1ccncn1 | 2.36
COc1ccc(C=Cc2cc(O)cc(O[C@@H]3O[C@H](CO)[C@@H](O)[C@H](O)[C@H]3O)c2)cc1 | 3.72
O=C(O)[C@H]1O[C@@H](Oc2cc(O)c3c(=O)c(-c4ccc(O)cc4)coc3c2)[C@H](O)[C@@H](O)[C@@H]1O | -0.717
COc1cc(OC)c2ccc(=O)oc2c1CC(O)C(C)(C)OC (stereo not given) | -0.0646 ± 0.54
Oc1ccc(CCCCC(CCc2ccc(O)cc2)O[C@@H]2OC[C@@H](O)[C@H](O)[C@H]2O)cc1 (stereo not given in full) | 1.23
COc1ncnc(N)c1OC | 2.66
COC(=O)C[C@H]1C(C)(C)[C@@H](O)[C@@H]2CC3=C4CC(O)O[C@@H](c5ccoc5)[C@]4(C)CCC3[C@@]1(C)C2=O (stereo not given in full) | 3.09

Compound | cell shape (Z-score)
CO[C@@H]1[C@@H](O[C@@H]2O[C@H](C)[C@@H](O[C@H]3C[C@@](C)(O)[C@H](O)[C@H](C)O3)[C@H](N(C)C)[C@H]2O)[C@@H](CC=O)C[C@@H](C)[C@@H](O[C@H]2CC[C@H](N(C)C)[C@@H](C)O2)/C=C/C=C/C[C@H](C)OC(=O)C[C@H]1O | -0.614
NC(=O)NC(=O)Cc1ccccc1 | 3.39
COc1ccc(C(=O)c2ccc(C)cc2)c(O)c1 | 1.63
CCOC(=O)c1ncc2[nH]c3cccc(OC(C)C)c3c2c1C | -0.273
O=C(OCC1OC(Oc2ccc(O)cc2COC(=O)C2(O)C(O)CCC(O)C2O)C(O)C(O)C1O)c1ccccc1 (stereo not given) | -1.19
O=c1c(O)c(-c2ccc(O)c(O)c2)oc2cc(O)cc(O)c12 | 1.4
Nc1ncnc2c1c(-c1cccc(OCc3ccccc3)c1)cn2[C@H]1C[C@H](CN2CCCC2)C1 | 6.27
O=C1NN(C(=O)Nc2ccc(Br)cc2)[C@@H](c2ccccc2)[C@@H]1c1ccccc1 | 1.43
COc1ccc(-c2coc3cc(O)cc(O)c3c2=O)cc1 | 1.04
C=C[C@H]1[C@H](O[C@@H]2O[C@H](CO)[C@@H](O)[C@H](O)[C@H]2O)OC=C2C(=O)N3Cc4c([nH]c5ccccc5c4=O)[C@@H]3C[C@H]21 | -2.83
CC(C)n1c(/C=C/[C@@H](O)C[C@@H](O)CC(=O)O)c(-c2ccc(F)cc2)c2ccccc21 | 2.27
CC(C)=CCc1c(O)c(CC=C(C)C)c2c(c1O)C(=O)CC(c1ccccc1)O2 (stereo not given) | 2.25
O=C(c1ccc(F)cc1)C1CCN(CCCCc2ccccc2)CC1 | 1.2
CCS(=O)(=O)N(C)C1c2cc(C#N)ccc2OC(C)(C)C1O (stereo not given) | -3.02
C=CC1CN2CCC1CC2[C@@H](O)c1ccnc2ccc(OC)cc12 (stereo not given in full) | 0.0385
Cc1cc2c(cc1S(N)(=O)=O)S(=O)(=O)CCC2 | 1.2
COc1ccc2nc(NC(=O)Nc3ccccc3)sc2c1 | 2.21
C[C@@]12C[C@]3(O)O[C@H](O1)C1(COC(=O)c4ccccc4)[C@H]3C[C@@]12O[C@@H]1O[C@H](COC(=O)c2ccccc2)[C@@H](O)[C@H](O)[C@H]1O | -3.91
COc1cc(-c2cc(O)c(OC)c(OC)c2)cc(O)c1OC | 1.43
CNC(=NC#N)NCCSCc1nc[nH]c1C | 0.0387
C#Cc1cccc(Nc2ncnc3cc(OCCOC)c(OCCOC)cc23)c1 | 9.85 ± 1.2
COc1cc(C(C)=O)ccc1OCCCN1CCC(c2noc3cc(F)ccc23)CC1 | -1.32
C=C1C2CCC3[C@]4(C)CCC[C@@](C)(C(=O)O)C4CC[C@]3(C2)[C@H]1OC(C)=O (stereo not given in full) | 1.1

Compound | cell shape (Z-score)
C=CC(C)(C)c1cc2cc3ccoc3cc2oc1=O | -0.961
CCCCCCCCNC[C@@H](O)[C@H](O)[C@@H](O)[C@@H](O)CO | -0.648
CC(C)Nc1ncccn1 | -0.0964
COc1ccc(Nc2ncnc3ccc(OC)cc23)cc1 | 1.84
COC(=O)c1c(C)cc(O)cc1O | 1.85
C=CC(C)(C)c1[nH]cnc1/C=C1\NC(=O)C(C(C)C)NC1=O (stereo not given) | 1.71
CCCCCCCCCCOc1cc2c(O)c(C(=O)OCC)cnc2cc1OCC | 1.16
c1ccc(-c2cc3ccccc3[nH]2)cc1 | 1.23
C[C@]12C=CC(=O)C=C1CC[C@@H]1[C@@H]2[C@@H](O)C[C@@]2(C)[C@H]1CC[C@]2(O)C(=O)CO | -1.34
COc1ccc(C#CC2=CCCN(C(=O)/C=C/c3cc(OC)c(OC)c(OC)c3)C2=O)cc1 | 1.74
CCCCCCCCC=CCCCCCCCC(=O)NC(CO)Cc1ccc(O)cc1 (stereo not given) | 2.36
C[C@@H]1CC(=O)c2c(ccc3c2C(=O)c2cccc(O)c2C3=O)C1 | 0.633
CCCCNC(=O)NS(=O)(=O)c1ccc(C)cc1 | -0.616
COc1c(C(O)CC(C)C)ccc2c1C(=O)OCc1cc(C)cc(O)c1O2 (stereo not given) | 1.35
CC(c1cc2ccccc2s1)N(O)C(N)=O (stereo not given) | 2.07
O=C1CCc2ccc(OCCCCN3CCN(c4cccc(Cl)c4Cl)CC3)cc2N1 | 1.22
Cn1cnc2nc(NCCO)nc(NCc3ccccc3)c21 | -1.8
CC(OC1OC(CO)C(O)C(O)C1O)C1C(O)CC2C3CCC4=CC(=O)CCC4(C)C3CCC21C (stereo not given) | 1.57
CC(C)(c1ccc(O)cc1)c1ccc(O)cc1 | 0.967
C=C(C(=O)O)C1CCC(CCC)OC1=O (stereo not given) | 0.0873
CC12CCC(=O)C=C1CCC1C2[C@@H](O)CC2(C)C1CC[C@]2(O)C(=O)COP(=O)(O)O (stereo not given in full) | 1.08

Some values from the entries so far.
cell shape (Z-score) with `COc1ccc(Nc2ncnc3ccc(OC)cc23)cc1` reads 1.84
cell shape (Z-score) with `COC(=O)c1c(C)cc(O)cc1O` reads 1.85
cell shape (Z-score) with `C[C@@H]1CC(=O)c2c(ccc3c2C(=O)c2cccc(O)c2C3=O)C1` reads 0.633
cell shape (Z-score) with `c1ccc(-c2cc3ccccc3[nH]2)cc1` reads 1.23
